Source: US4865840A, “Topical compositions containing selenoamino acids for the prevention of ultraviolet radiation-induced skin damage” (priority 1987, dated 1989)

Assay: hepatic protein after 39 weeks
Assay type: in vivo, BALBc mice

## C[Se]CC[C@H](N)C(=O)O [L-selenomethionine]
UV +, d.water, n = 20
  protein: 15.82 ± .41 mg/g
UV +, topical, n = 13
  protein: 15.45 ± .45 mg/g
UV -, d.water, n = 4
  protein: 16.29 ± .86 mg/g
UV -, topical, n = 4
  protein: 13.96 ± .87 mg/g
